These results are taken from paper PMC9140019.

Chains of the proteins cited; added tags and fusions are not shown. Lines headed by an entry give the natural chain unless they say otherwise; changes in a name come on top. Residues count along the entry.
UniProt Q13464: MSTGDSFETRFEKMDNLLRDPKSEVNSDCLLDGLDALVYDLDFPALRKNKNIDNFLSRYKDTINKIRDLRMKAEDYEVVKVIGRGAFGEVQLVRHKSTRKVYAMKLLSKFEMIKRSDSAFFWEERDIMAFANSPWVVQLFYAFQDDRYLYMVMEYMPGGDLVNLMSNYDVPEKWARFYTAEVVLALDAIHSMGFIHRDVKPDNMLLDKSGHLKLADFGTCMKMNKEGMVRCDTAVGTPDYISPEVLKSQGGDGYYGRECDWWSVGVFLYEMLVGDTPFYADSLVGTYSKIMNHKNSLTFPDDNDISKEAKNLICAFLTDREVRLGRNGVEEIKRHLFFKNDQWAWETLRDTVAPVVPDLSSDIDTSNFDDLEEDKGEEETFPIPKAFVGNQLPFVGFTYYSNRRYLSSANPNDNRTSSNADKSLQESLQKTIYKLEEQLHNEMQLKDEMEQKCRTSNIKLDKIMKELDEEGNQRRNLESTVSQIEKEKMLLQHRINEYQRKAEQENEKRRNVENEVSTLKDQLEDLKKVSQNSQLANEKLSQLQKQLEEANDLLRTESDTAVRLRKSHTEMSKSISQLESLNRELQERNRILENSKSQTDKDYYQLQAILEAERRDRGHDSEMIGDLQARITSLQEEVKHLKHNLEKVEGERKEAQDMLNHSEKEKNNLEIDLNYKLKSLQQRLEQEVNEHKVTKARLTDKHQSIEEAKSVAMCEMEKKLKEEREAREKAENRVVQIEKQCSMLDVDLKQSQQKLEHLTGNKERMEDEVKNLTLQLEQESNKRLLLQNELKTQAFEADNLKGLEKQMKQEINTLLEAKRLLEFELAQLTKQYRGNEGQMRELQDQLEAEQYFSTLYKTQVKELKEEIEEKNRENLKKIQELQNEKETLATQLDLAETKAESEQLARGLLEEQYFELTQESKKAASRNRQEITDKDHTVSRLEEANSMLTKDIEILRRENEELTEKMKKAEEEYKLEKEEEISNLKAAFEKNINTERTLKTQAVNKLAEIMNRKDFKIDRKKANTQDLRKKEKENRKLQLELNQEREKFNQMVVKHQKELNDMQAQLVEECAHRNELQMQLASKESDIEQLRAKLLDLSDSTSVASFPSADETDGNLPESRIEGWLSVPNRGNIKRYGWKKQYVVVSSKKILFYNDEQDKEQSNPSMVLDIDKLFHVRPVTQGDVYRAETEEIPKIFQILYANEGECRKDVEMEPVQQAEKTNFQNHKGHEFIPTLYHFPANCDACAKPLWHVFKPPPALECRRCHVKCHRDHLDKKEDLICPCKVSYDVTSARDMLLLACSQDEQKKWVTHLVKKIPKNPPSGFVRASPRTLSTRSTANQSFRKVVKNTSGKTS
UniProt P10909, residues 23-449: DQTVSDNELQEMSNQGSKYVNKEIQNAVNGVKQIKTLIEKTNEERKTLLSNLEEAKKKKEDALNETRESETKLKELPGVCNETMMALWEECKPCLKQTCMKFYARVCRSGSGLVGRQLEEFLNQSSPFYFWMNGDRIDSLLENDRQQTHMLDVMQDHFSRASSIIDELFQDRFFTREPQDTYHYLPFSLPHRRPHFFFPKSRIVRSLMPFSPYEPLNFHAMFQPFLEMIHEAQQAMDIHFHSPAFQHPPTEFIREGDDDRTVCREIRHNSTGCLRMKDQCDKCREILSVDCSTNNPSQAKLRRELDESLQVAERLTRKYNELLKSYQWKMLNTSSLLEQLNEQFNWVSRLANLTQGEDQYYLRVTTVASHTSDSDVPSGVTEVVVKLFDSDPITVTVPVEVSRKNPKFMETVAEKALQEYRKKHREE
UniProt P27361: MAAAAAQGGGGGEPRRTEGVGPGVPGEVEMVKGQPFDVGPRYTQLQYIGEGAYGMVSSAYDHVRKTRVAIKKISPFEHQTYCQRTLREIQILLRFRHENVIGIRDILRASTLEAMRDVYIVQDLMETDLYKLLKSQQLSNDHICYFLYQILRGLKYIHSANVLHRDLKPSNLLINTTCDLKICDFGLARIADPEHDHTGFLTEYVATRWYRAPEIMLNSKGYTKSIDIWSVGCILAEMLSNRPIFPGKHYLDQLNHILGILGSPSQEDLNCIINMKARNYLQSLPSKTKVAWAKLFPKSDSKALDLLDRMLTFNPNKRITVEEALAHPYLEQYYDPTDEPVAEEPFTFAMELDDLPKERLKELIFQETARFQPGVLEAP
UniProt P28482: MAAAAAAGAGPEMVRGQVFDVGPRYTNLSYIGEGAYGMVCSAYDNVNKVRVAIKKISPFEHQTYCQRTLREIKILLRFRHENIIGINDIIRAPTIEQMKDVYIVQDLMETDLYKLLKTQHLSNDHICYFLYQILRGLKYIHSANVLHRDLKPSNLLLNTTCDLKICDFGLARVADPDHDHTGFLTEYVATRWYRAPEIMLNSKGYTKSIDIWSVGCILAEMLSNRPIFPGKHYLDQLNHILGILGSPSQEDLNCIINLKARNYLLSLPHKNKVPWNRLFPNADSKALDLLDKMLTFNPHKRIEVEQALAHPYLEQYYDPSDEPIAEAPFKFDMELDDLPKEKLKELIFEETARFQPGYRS

Results are given in words; binding and its absence hold for the method and conditions named. Binding seen in cells or lysates may run through a third protein. Some entries that bind do so weakly or less than the wild type.

Assay [1] has as its target HA-tagged ROCK1 (human) (UniProt Q13464). As to the kind of experiment: co-IP; 293FT cells transiently overexpressing Flag-tagged CLU and HA-tagged ROCK1; Flag magnetic beads and HA affinity agarose beads; Western blotting. A general note: A western blot detects proteins with antibodies after separation by electrophoresis.
The target is the same in assay [2]. Briefly: co-IP; co-IP of ROCK1 and ERK1/2 in the absence and presence of CLU; cells and tags not stated for this panel.
In assay [3] the target is ROCK1 (endogenous) (human (endogenous in 293FT, H460 and A549)) (UniProt Q13464). As to the kind of experiment: proximity ligation; Duolink PLA in situ (distances < 40 nm) with anti-CLU and anti-ROCK1 antibodies in H460 and A549 cells.

As to “Flag-tagged precursor Clusterin (cytoplasmic precursor CLU, psCLU) (from UniProt P10909 23-449)”, the binding entry with HA-tagged ROCK1 (human) [1] is listed as “binds”.
Same read-out and setting: the value for “secretory Clusterin (sCLU) from Flag-tagged CLU (from UniProt P10909-1 23-227; P10909-1 228-449) (complex)” was “no binding”.
For “ERK1 (of ERK1/2) (from UniProt P27361 1-379)”, the binding result with HA-tagged ROCK1 (human) [2] is given as “binds”.
Regarding “Clusterin (CLU), endogenous in lung cancer cells (from UniProt P10909 23-449)”, the binding entry in assay [3] is reported as “binds”.
As to “ERK2 (of ERK1/2) (from UniProt P28482 1-360)”, the binding entry with HA-tagged ROCK1 (human) [2] is recorded as “binds”.
